{
  "sequences": {"note": "Amino acid sequences for entries named in this document (tags omitted). A change or cut given only in a name is not applied to a line headed by its entry.", "UniProt P05648": "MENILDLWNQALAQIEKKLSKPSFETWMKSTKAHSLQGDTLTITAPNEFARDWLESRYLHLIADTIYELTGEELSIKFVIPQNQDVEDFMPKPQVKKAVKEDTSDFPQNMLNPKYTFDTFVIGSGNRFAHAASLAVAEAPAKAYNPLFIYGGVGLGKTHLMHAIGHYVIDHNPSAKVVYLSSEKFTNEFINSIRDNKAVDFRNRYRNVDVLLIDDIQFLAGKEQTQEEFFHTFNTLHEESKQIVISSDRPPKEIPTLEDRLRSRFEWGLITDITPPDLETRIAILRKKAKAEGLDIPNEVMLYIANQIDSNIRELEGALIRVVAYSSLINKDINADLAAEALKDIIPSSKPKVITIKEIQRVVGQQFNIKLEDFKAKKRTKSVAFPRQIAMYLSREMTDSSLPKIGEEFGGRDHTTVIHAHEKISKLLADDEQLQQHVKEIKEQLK"},
  "source": "paper PMC10721633",
  "about": "“The bacterial replication origin BUS promotes nucleobase capture” (Nature Communications, 2023)",
  "target": "DnaA (Bacillus subtilis) (UniProt P05648)",
  "experiment": "cryo-EM structure",
  "conditions": "ATP; scaffold annealing in 30 mM HEPES-KOH pH 8, 100 mM K acetate, 5 mM Mg acetate; strand separation assay at 20 C; recombinant protein; protein details: His14-SUMO removed",
  "note": "Construct, isoform or probe ends are uncertain for at least one entry.",
  "data": [
    {"sequence": "TAGTAGAAGTAATAGTAGGGCCTGTGGATTTGTGGATAAGT / ACTTATCCACAAATCCACAGGCCC [BUS tailed scaffold (DnaA-box#6, box#7, ssDNA DnaA-trios)]", "values": [
      {"measurement": "binding result", "result": "binds"}
    ]}
  ]
}
